# Results taken from the supplement of paper PMC12823440, “Inhibitors supercharge kinase turnover through native proteolytic circuits” (Nature, 2025).
# Sequences of proteins named here, by UniProt entry; tags and fusion partners are left off. A change or cut given only in a name is not applied to a line headed by its entry.
# UniProt Q8IWU2: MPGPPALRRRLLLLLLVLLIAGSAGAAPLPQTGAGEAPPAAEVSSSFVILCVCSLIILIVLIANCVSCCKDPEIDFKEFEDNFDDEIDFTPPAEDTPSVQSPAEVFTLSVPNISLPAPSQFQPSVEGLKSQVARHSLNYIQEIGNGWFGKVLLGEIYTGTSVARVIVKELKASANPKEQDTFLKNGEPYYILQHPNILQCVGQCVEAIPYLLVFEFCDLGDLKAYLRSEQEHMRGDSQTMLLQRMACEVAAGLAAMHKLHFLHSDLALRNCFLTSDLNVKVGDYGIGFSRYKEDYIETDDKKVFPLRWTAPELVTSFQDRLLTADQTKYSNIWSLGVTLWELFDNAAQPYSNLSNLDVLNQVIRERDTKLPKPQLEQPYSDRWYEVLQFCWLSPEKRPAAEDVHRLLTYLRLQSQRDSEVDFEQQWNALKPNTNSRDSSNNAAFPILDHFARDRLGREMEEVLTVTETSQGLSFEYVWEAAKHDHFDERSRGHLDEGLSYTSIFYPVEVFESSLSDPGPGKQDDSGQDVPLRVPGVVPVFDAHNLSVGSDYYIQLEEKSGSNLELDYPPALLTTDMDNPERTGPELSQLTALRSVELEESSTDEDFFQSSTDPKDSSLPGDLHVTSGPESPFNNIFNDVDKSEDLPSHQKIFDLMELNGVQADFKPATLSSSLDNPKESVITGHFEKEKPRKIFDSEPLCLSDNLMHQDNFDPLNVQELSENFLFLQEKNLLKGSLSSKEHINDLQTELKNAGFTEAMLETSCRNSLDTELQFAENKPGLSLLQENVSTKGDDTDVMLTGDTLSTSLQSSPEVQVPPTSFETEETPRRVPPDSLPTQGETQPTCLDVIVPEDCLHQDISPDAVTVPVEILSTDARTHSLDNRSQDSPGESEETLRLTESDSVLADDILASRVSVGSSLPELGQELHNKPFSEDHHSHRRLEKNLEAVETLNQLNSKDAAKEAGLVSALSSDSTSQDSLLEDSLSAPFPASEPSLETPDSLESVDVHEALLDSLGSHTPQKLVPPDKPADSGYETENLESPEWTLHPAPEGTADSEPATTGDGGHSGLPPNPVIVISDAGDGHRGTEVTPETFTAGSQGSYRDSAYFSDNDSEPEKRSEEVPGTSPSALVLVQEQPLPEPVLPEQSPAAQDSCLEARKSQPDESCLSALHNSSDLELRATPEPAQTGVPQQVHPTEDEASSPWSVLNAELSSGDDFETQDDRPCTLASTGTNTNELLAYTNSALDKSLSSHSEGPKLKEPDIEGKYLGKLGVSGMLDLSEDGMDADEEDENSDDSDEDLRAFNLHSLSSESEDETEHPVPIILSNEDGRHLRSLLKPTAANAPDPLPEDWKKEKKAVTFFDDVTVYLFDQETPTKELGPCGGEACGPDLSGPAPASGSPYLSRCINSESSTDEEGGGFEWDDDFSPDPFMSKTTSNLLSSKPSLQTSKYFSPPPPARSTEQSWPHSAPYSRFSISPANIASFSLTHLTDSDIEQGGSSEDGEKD
# UniProt Q12851: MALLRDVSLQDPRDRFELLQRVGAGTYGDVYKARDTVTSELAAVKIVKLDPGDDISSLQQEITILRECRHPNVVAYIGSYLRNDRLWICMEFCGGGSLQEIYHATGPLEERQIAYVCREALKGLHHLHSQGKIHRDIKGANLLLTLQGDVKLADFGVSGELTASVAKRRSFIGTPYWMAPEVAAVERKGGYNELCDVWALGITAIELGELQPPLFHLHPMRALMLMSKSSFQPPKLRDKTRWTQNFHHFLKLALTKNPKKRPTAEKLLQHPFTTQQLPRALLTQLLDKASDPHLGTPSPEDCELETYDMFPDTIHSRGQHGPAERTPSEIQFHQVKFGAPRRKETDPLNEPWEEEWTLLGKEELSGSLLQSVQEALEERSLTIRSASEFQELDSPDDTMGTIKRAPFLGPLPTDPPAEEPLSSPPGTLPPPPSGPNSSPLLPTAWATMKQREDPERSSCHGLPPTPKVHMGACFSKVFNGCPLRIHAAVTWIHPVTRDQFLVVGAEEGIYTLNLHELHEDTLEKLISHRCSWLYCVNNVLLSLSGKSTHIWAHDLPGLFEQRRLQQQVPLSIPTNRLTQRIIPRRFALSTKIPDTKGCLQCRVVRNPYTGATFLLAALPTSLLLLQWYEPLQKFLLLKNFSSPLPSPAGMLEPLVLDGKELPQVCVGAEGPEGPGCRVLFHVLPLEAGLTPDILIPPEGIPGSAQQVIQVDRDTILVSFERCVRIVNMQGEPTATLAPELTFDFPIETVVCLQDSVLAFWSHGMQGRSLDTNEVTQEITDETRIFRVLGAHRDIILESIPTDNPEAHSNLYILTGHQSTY
# UniProt P28482, whole entry: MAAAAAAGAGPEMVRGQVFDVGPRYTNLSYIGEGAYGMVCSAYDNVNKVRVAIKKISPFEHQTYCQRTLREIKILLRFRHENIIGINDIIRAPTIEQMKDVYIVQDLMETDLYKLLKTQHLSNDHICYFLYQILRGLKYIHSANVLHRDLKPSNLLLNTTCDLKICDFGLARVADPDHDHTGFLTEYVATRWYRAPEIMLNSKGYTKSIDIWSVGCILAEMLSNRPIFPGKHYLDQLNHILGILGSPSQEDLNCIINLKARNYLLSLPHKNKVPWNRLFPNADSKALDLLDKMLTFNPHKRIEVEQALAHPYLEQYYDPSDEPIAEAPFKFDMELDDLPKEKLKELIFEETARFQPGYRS
# UniProt P49137, whole entry, looked up: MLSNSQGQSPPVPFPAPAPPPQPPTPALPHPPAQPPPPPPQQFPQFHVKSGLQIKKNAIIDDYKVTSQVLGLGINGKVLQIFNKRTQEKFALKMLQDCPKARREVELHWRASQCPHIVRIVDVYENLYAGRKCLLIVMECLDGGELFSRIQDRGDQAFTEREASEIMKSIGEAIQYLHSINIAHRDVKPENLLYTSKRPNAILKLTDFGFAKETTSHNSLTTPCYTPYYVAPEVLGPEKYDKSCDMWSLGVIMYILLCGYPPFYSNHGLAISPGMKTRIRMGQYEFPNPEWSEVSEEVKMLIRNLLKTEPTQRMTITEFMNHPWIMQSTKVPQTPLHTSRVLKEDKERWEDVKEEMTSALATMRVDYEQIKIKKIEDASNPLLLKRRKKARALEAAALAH
# UniProt Q9BUB5: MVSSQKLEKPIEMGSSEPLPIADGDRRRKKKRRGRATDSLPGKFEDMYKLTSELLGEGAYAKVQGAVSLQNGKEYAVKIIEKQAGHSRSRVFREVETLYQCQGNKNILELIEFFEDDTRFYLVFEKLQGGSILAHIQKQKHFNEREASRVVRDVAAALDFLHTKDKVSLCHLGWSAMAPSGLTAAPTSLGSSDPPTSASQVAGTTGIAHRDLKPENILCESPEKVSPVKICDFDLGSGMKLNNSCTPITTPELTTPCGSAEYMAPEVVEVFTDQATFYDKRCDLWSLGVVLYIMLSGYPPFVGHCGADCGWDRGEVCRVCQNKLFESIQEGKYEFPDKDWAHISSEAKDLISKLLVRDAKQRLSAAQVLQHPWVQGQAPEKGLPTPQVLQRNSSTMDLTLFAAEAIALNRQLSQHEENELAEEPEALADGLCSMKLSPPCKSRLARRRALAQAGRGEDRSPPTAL
# UniProt Q16288, whole entry, looked up: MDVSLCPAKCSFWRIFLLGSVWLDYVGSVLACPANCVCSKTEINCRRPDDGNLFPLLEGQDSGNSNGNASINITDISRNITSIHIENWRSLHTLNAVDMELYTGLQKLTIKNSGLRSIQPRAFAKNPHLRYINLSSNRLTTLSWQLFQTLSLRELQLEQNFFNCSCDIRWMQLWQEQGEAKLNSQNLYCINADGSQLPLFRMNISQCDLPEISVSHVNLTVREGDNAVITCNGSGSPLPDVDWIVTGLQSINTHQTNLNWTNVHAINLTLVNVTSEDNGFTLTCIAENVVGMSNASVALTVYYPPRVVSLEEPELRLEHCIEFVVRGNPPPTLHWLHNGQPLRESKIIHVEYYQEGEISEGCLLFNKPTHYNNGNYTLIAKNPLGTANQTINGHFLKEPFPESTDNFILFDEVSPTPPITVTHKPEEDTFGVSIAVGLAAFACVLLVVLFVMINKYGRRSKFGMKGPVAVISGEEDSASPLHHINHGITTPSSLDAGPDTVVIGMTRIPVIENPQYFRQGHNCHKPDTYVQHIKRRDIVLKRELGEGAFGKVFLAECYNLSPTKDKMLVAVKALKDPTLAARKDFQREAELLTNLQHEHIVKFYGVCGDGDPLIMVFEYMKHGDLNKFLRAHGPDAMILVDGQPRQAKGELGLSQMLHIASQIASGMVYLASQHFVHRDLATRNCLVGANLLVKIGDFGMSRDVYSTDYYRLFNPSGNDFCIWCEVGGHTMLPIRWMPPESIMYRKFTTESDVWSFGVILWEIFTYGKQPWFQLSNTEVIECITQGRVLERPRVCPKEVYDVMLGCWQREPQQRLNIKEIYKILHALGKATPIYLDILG
# UniProt P09619, whole entry: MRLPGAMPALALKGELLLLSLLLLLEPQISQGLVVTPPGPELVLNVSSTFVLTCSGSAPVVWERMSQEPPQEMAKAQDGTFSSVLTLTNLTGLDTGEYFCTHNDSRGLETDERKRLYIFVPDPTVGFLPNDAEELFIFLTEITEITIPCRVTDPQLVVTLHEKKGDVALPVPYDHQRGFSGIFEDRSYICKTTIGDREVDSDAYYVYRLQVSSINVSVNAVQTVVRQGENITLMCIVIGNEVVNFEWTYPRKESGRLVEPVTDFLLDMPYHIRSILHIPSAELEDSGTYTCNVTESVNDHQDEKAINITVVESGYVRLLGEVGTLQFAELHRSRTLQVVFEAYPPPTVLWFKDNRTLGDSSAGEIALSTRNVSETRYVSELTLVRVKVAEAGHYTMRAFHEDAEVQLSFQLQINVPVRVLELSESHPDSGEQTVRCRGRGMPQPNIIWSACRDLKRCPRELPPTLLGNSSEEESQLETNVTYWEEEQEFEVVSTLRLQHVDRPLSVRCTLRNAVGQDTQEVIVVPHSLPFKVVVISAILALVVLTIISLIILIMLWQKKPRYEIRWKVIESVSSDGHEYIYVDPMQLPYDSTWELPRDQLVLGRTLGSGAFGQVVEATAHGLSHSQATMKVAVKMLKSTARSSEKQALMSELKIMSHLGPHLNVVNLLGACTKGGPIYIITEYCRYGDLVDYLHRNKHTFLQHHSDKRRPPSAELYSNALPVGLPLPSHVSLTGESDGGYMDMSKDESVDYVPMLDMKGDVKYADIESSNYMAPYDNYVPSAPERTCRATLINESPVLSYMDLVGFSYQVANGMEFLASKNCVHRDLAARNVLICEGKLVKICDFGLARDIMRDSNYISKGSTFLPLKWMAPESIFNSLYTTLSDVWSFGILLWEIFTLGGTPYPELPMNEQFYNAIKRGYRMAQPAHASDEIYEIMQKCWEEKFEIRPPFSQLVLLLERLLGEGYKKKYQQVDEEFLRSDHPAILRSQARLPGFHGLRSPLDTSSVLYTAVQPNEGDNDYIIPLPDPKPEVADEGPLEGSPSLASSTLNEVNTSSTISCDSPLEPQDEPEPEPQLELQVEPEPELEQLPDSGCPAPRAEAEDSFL
# UniProt Q15118, whole entry, looked up: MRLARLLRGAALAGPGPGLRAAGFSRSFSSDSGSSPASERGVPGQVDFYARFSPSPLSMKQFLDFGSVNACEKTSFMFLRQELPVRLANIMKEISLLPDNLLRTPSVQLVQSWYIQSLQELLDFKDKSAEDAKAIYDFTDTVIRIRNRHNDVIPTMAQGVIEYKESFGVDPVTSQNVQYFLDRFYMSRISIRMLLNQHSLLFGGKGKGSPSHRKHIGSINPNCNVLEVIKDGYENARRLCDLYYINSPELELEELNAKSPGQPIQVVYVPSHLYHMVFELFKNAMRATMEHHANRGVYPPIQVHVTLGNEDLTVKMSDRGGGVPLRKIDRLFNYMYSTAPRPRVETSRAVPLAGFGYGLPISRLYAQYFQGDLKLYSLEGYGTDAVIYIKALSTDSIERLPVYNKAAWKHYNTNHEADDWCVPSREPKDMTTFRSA
# UniProt O15530: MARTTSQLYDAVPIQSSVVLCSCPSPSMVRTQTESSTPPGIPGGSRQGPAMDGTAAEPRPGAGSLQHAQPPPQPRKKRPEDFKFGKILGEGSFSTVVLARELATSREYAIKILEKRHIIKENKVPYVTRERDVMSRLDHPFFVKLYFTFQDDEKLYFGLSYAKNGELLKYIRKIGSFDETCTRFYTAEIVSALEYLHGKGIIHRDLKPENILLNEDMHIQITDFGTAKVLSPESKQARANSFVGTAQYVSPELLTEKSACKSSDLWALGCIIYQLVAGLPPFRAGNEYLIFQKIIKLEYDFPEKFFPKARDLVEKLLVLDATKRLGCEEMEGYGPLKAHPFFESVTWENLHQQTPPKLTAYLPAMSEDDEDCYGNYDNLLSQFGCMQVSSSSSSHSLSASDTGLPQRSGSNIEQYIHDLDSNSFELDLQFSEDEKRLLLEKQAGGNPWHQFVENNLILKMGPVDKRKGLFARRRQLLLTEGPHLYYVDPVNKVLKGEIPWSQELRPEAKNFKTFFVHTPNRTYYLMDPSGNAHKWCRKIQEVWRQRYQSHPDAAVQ
# Some of the results follow. Hit calls seldom repeat between salt and free forms of one compound.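 Kinases, fused to nanoluciferase, were expressed in K562 cells; luminescence was measured every 4 h from 2 to 18 h as percent of control (DMSO = 100%, positive control = 0%). A time point is decreased if signal falls significantly (2 sigma). Hits were called by the authors by a rule that is not shown; the count of time points alone does not decide it.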
# What was measured:
# Experiment in all cases: number of time points (of 5) at which kinase-Nluc abundance scored as decreased, DMSO-normalised (count); higher = more persistent destabilization
# Conditions in all cases: K562; 2-18 h
# LMTK2 = LMTK2 (UniProt Q8IWU2)
# LYN = LYN (UniProt P07948)
# MAP2K1 = MAP2K1 (UniProt Q02750)
# MAP2K2 = MAP2K2 (UniProt P36507)
# MAP4K2 = MAP4K2 (UniProt Q12851)
# MAPK1 = MAPK1 (UniProt P28482)
# MAPK4 = MAPK4 (UniProt P31152)
# MAPKAPK2 = MAPKAPK2 (UniProt P49137)
# MKNK1 = MKNK1 (UniProt Q9BUB5)
# NTRK2 = NTRK2 (UniProt Q16620)
# NTRK3 = NTRK3 (UniProt Q16288)
# PAK4 = PAK4 (UniProt O96013)
# PBK = PBK (UniProt Q96KB5)
# PDGFRB = PDGFRB (UniProt P09619)
# PDK1 = PDK1 (UniProt Q15118)
# PDPK1 = PDPK1 (UniProt O15530)
# PIK4CA = PIK4CA (UniProt P42356)
# PIK4CB = PIK4CB (UniProt Q9UBF8)
# PLK1 = PLK1 (UniProt P53350)
# PRKAA1 = PRKAA1 (UniProt Q13131)
Structure (SMILES),number of time points (LMTK2),number of time points (LYN),number of time points (MAP2K1),number of time points (MAP2K2),number of time points (MAP4K2),number of time points (MAPK1),number of time points (MAPK4),number of time points (MAPKAPK2),number of time points (MKNK1),number of time points (NTRK2),number of time points (NTRK3),number of time points (PAK4),number of time points (PBK),number of time points (PDGFRB),number of time points (PDK1),number of time points (PDPK1),number of time points (PIK4CA),number of time points (PIK4CB),number of time points (PLK1),number of time points (PRKAA1)
C=C(F)C(=O)N1CCN(c2nc(OC[C@@H]3CCCN3C)nc3c2CCN(c2cccc4cccc(Cl)c24)C3)C[C@@H]1CC#N (2.5 µM),0,0,0,0,0,0,0,0,0,0,0,0,0,0,0,0,0,0,0,0
COc1ccc(CN2C3CC2CN(c2ccc(-c4cc(OCC(C)(C)O)cn5ncc(C#N)c45)cn2)C3)cn1 [Selpercatinib] (10 µM),0,0,0,0,0,0,0,0,0,0,0,0,0,0,0,0,0,0,0,0
CC[C@H](C)[C@H](NC(=O)[C@H](CCC(=O)O)NC(=O)[C@H](CCCN=C(N)N)NC(=O)[C@H](CCCN=C(N)N)NC(=O)[C@@H](N)CCCCN)C(=O)N[C@@H](CC(C)C)C(=O)N[C@@H](CO)C(=O)N[C@@H](CCCN=C(N)N)C(=O)N[C@@H](CCCN=C(N)N)C(=O)N1CCC[C@H]1C(=O)N[C@@H](CO)C(=O)N[C@@H](Cc1ccc(O)cc1)C(=O)N[C@@H](CCCN=C(N)N)C(=O)O [CREBtide] (10 µM),0,0,0,0,0,0,0,0,0,0,0,0,0,0,0,0,0,0,0,0
CCCC(=O)Nc1nc2c(ncn2[C@@H]2O[C@@H]3COP(=O)(O)O[C@H]3[C@H]2OC(=O)CCC)c(=O)[nH]1 [Dibutyryl-cGMP (sodium)] (10 µM),0,0,0,0,0,0,0,0,0,0,0,0,0,0,0,0,0,0,0,0
COc1ccc2c(=O)c(-c3ccccc3)coc2c1 [7-Methoxyisoflavone] (10 µM),1,0,0,0,0,0,0,0,0,0,3,0,0,0,0,0,0,0,0,0
c1cc(-c2cnn3cc(-c4ccc(N5CCNCC5)cc4)cnc23)c2cccnc2c1 (2.5 µM),0,0,0,0,0,0,0,0,0,0,1,0,0,0,0,0,0,0,0,0
CN(C)Cc1cccc(N=C(c2ccccc2)c2c(O)[nH]c3cc(C(N)=O)ccc23)c1 (10 µM),0,0,0,0,0,0,0,0,0,0,0,0,0,0,0,0,0,0,0,0
Cn1ncc(Cl)c1-c1cc(C(=O)N[C@H](CN)Cc2ccc(F)c(F)c2)sc1Cl (10 µM),0,0,0,0,0,0,0,0,0,0,0,0,0,0,0,0,1,1,1,0
CN1C(=O)NC(Cc2c[nH]c3c(Cl)cccc23)C1=O (racemic) [Necrostatin 2 (racemate)] (10 µM),0,0,0,0,0,0,0,0,0,0,0,0,0,0,0,0,0,0,0,0
O=C(CCCCCn1cc(Nc2ncc(Cl)c(Nc3ccc(Cl)cc3)n2)cn1)NO (2.5 µM),0,0,0,0,0,0,0,0,0,0,0,0,0,1,1,0,1,0,0,0
O=c1cc(-c2ccc(O)c(O)c2O)oc2ccccc12 (10 µM),0,0,0,0,0,0,0,0,0,0,0,0,0,0,0,0,0,0,0,0
CCOc1ccccc1C=C1C(=O)Nc2ccccc21 (10 µM),1,0,0,0,0,0,2,0,1,1,1,0,0,0,0,0,0,0,0,0
COc1cc(N2CCC(O)CC2)ccc1Nc1cc(Nc2ccccc2S(=O)(=O)C(C)C)c2cc[nH]c2n1 (10 µM),0,0,0,0,0,0,0,0,0,0,0,0,0,0,0,0,0,0,0,0
CCN1/C(=C/C(C)=O)Sc2ccc(OC)cc21 (10 µM),3,2,0,1,1,3,0,0,0,1,0,1,0,0,1,0,0,1,0,1
CNC(=O)c1cc(Oc2ccc3nc(N[C@@H]4CCCC[C@H]4O)sc3c2)ccn1 (10 µM),0,0,0,0,0,0,0,0,0,0,0,0,0,0,0,0,0,0,0,0
CCOC(=O)c1c2c3c(cccc3[nH]c1=O)C(=O)c1ccccc1-2 (10 µM),0,0,0,0,0,0,0,0,0,0,0,0,0,0,0,0,0,0,0,0
O=C(NOCCO)c1ccc2cncn2c1Nc1ccc(I)cc1F (10 µM),0,0,0,0,0,0,0,0,0,0,0,0,0,1,0,2,0,0,0,1
CC(C)(O)[C@@H]1CC[C@](C)([C@H]2[C@@H](O)C[C@@]3(C)[C@@H]4C[C@H](O[C@@H]5O[C@H](CO)[C@@H](O)[C@H](O)[C@H]5O)[C@H]5C(C)(C)[C@@H](O[C@@H]6OC[C@@H](O)[C@H](O)[C@H]6O[C@@H]6O[C@H](CO)[C@@H](O)[C@H](O)[C@H]6O)CC[C@@]56C[C@@]46CC[C@]23C)O1 [Astragaloside VI] (10 µM),0,0,0,0,0,0,0,0,0,0,0,0,0,0,0,0,0,0,0,0
CC[C@@H](N)CNc1ccnc(-c2cc(-c3cnn(C)c3)ccc2O)n1 (2.5 µM),3,0,0,0,0,0,0,0,0,0,0,0,0,0,0,1,0,0,0,0
COc1cc(N2CCC(N3CCN(C)CC3)CC2)ccc1Nc1nc2c(c(Nc3ccccc3S(=O)(=O)NC(C)C)n1)CCN2 [Conteltinib] (10 µM),0,0,0,0,0,0,0,0,0,0,0,0,0,0,0,0,0,0,0,0
Cc1cc(C(C)Nc2ccccc2)c2nc(N3CCOCC3)cc(=O)n2c1 (stereo not given) (10 µM),0,0,0,0,0,0,0,0,0,0,0,0,0,0,0,0,0,0,0,0

# As a working copy, some entries already given:
Structure (SMILES),number of time points (LMTK2),number of time points (LYN),number of time points (MAP2K1),number of time points (MAP2K2),number of time points (MAP4K2),number of time points (MAPK1),number of time points (MAPK4),number of time points (MAPKAPK2),number of time points (MKNK1),number of time points (NTRK2),number of time points (NTRK3),number of time points (PAK4),number of time points (PBK),number of time points (PDGFRB),number of time points (PDK1),number of time points (PDPK1),number of time points (PIK4CA),number of time points (PIK4CB),number of time points (PLK1),number of time points (PRKAA1)
C=C(F)C(=O)N1CCN(c2nc(OC[C@@H]3CCCN3C)nc3c2CCN(c2cccc4cccc(Cl)c24)C3)C[C@@H]1CC#N (2.5 µM),0,0,0,0,0,0,0,0,0,0,0,0,0,0,0,0,0,0,0,0
COc1ccc(CN2C3CC2CN(c2ccc(-c4cc(OCC(C)(C)O)cn5ncc(C#N)c45)cn2)C3)cn1 [Selpercatinib] (10 µM),0,0,0,0,0,0,0,0,0,0,0,0,0,0,0,0,0,0,0,0
